Data from publication PMC4354152.
Where a chain is given by its changes, count along the chain named. In names and notes the source's numbering stands. No constants are given. Whether binding was seen depends on the method and setting. In cells and extracts the contact can be indirect. Binding can be weak; no strength is given. Tags and fused reporters may be left off the sequences shown. One block for each molecule: values may come before it.

Key:
[1] = target: T1, FLAG-Tmod3 WT stably expressed in 3T3-L1 adipocytes (mouse) (UniProt Q9JHJ0); assay: co-IP; immunoprecipitation from 3T3-L1 adipocytes expressing FLAG-Tmod3 (WT or LL mutant); endogenous tropomyosins detected by western blot
T1 sequence: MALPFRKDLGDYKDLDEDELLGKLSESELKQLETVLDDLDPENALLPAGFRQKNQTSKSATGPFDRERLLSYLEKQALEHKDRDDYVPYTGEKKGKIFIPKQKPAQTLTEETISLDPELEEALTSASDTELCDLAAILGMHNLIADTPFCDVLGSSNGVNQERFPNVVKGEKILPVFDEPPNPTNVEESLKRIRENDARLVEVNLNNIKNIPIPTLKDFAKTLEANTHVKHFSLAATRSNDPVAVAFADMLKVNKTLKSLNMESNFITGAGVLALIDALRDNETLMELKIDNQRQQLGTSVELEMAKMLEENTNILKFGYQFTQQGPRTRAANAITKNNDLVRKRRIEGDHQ

[2] = target: GST-Tm5NM1; assay: pull-down; GST-Tm5NM1 beads incubated with lysates of HEK293T expressing HA-Tmod3-WT or HA-Tmod3-LL; TNET buffer, 4 °C; only the target purified

binding [1]: no binding
Molecule: Tm1 (tropomyosin), endogenous in 3T3-L1 adipocytes (mouse (endogenous in 3T3-L1))

binding [1]: no binding
Molecule: Tm3 (tropomyosin), endogenous in 3T3-L1 adipocytes (mouse (endogenous in 3T3-L1))

binding [1]: binds
Molecule: Tm5NM1 (tropomyosin), endogenous in 3T3-L1 adipocytes (mouse (endogenous in 3T3-L1))

binding [2]: binds
B1: HA-Tmod3-WT expressed in HEK293T (protein, UniProt Q9JHJ0 1-352)
chain: T1 sequence

binding [2]: no binding
B2: HA-Tmod3-L29G/L134D (HA-Tmod3-LL) expressed in HEK293T (protein, UniProt Q9JHJ0 1-352)
chain: T1 sequence with L29G, L134D
